Results are given in words; binding and its absence hold for the method and conditions named. In cells and extracts the contact can be indirect. Some binding calls cover weakened binding; strength is not graded here.
Columns and labels:
CCR5 [1] = target: CCR5 (UniProt P51681); experiment: co-IP; as a1, but cells treated with 5P14-RANTES (100 nM, 50 min) before crosslinking, lysis and anti-CCR5 immunoprecipitation
CCR5 [2] = target: CCR5 (UniProt P51681); experiment: condition: only cells treated with 5P12-RANTES (100 nM, 50 min); co-IP; as a1, but cells treated with 5P12-RANTES (100 nM, 50 min) before crosslinking, lysis and anti-CCR5 immunoprecipitation
CCR5 [3] = target: CCR5 (UniProt P51681); experiment: co-IP; CHO-CCR5 cells stably expressing arrestin2-GFP treated with RANTES/CCL5 or PSC-RANTES (100 nM, 50 min), washed, crosslinked with 1.25 mM dithiobis[succinimidylpropionate] (60 min), lysed (25 mM Tris, 150 mM NaCl, 1 mM EDTA, 1% NP40, 5% glycerol); CCR5 captured with rat anti-CCR5 mAb on Protein G Mag Sepharose; crosslinks cleaved with 50 mM DTT; blot with anti-GFP or anti-arrestin2

The chains behind the UniProt entries cited, without tags or fusion partners.
UniProt P51681: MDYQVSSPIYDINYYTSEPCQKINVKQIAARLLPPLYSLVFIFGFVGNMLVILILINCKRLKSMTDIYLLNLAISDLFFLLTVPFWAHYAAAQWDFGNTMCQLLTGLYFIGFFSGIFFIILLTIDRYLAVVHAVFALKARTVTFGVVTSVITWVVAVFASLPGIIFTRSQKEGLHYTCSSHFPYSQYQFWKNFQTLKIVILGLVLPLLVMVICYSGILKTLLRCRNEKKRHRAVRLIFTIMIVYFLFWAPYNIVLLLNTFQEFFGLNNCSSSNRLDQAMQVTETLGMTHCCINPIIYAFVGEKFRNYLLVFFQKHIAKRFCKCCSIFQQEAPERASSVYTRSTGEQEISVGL
UniProt P17870: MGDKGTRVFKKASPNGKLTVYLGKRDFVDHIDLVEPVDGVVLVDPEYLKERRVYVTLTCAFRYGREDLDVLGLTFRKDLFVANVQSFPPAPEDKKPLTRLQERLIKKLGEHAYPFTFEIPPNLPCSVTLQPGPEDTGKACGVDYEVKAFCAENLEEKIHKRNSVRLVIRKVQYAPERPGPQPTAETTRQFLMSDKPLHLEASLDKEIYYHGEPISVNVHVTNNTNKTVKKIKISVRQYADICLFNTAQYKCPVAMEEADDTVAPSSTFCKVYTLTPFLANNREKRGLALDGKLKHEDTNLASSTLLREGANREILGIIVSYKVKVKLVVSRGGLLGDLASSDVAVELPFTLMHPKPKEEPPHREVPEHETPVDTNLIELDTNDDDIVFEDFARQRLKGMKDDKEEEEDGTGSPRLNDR

What does the source list for “arrestin2-GFP (from UniProt P17870 1-418)”?
binding (CCR5 [1]): binds weakly; binding (CCR5 [2]): no binding; binding (CCR5 [3]): binds

Reference: PMC4414452
